No constants are given. Whether binding was seen depends on the method and setting. Some results given as binding are weak or reduced against the parent protein; the word gives no strength.

By UniProt entry, the sequences of proteins in these tests, tags left out. Residues count along the entry.
UniProt Q77IS8, residues 1-374: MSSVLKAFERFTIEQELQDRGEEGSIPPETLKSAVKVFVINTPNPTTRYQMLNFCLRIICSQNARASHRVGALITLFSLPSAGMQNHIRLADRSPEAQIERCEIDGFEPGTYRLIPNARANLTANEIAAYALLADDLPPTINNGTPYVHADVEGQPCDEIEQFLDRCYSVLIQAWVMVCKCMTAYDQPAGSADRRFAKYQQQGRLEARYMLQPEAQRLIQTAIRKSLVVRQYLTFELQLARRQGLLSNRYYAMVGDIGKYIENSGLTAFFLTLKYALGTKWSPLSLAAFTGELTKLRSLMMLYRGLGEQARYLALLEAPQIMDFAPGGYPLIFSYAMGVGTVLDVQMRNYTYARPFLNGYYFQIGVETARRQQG

The values that follow come from article PMC8253768, “Structural plasticity of mumps virus nucleocapsids with cryo-EM structures” (Communications Biology, 2021).

The target of the experiment is MuV nucleoprotein with C-arm and N-tail (375–549) truncated (mumps virus) (UniProt Q77IS8). The experiment in a line: cryo-EM structure; helical reconstruction of filaments assembled from purified N_(Δarm), 2.9 Å; both purified.

“MuV nucleoprotein with C-arm and N-tail (375–549) truncated (from UniProt Q77IS8 1-374) (domain or fragment)”: the binding result was “binds”.
